The source of these data is publication PMC2701997.

For the test, the target named is Lin-7 (human (endogenous in WM115 and HMEC-1)). As to the kind of experiment: co-IP; clarified lysates (1 mg/ml, 1% Triton lysis buffer) of WM115 and HMEC-1 cells; anti-AQP1, anti-Lin7 or anti-EphB2 overnight, protein A-Sepharose 90 min at 4°C; blots with anti-AQP-1 or anti-Lin7; all proteins endogenous.

No constants are given. Whether binding was seen depends on the method and setting. Binding seen in cells or lysates may run through a third protein. A result given as binding can be weak or reduced; the word gives no strength.

B1: AQP1 (protein, UniProt P29972 1-269)
chain: MASEFKKKLFWRAVVAEFLATTLFVFISIGSALGFKYPVGNNQTAVQDNVKVSLAFGLSIATLAQSVGHISGAHLNPAVTLGLLLSCQISIFRALMYIIAQCVGAIVATAILSGITSSLTGNSLGRNDLADGVNSGQGLGIEIIGTLQLVLCVLATTDRRRRDLGGSAPLAIGLSVALGHLLAIDYTGCGINPARSFGSAVITHNFSNHWIFWVGPFIGGALAVLIYDFILAPRSSDLTDRVKVWTSGQVEEYDLDADDINSRVEMKPK
B1: the binding result is listed as “binds”.
